Hit rate of the full screen: of about 320,000 compounds, about 620 (0.19%) were called active. Inconclusive results, whose numbers are uncertain, are shown with a selection of clear calls. Cut-off read from the data, not from the text of the source: active = activation above about 80%; inconclusive = between about 30% and that limit; inactive = weaker than that.
target: Transient receptor potential cation channel subfamily V member 1 (Homo sapiens) (UniProt Q8NER1); test: HTS Assay for Compounds that Act as Agonists of the Vanilloid Receptor 1; details: TRPV1-expressing cells, Fluo-8 calcium influx, agonist mode; at 8.33 µM, hits give high values; note: 0% is about no effect
Procedure, shortened: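 TRPV1-expressing cells were cultured overnight at 35.5C and loaded with Fluo-8 calcium dye for 40 to 90 min at room temperature. After a 10 s baseline, compound was added and calcium influx was read kinetically for 3 min (ex 480/em 520 nm).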

Chains of the proteins cited; added tags and fusions are not shown.
UniProt Q8NER1, whole entry, looked up: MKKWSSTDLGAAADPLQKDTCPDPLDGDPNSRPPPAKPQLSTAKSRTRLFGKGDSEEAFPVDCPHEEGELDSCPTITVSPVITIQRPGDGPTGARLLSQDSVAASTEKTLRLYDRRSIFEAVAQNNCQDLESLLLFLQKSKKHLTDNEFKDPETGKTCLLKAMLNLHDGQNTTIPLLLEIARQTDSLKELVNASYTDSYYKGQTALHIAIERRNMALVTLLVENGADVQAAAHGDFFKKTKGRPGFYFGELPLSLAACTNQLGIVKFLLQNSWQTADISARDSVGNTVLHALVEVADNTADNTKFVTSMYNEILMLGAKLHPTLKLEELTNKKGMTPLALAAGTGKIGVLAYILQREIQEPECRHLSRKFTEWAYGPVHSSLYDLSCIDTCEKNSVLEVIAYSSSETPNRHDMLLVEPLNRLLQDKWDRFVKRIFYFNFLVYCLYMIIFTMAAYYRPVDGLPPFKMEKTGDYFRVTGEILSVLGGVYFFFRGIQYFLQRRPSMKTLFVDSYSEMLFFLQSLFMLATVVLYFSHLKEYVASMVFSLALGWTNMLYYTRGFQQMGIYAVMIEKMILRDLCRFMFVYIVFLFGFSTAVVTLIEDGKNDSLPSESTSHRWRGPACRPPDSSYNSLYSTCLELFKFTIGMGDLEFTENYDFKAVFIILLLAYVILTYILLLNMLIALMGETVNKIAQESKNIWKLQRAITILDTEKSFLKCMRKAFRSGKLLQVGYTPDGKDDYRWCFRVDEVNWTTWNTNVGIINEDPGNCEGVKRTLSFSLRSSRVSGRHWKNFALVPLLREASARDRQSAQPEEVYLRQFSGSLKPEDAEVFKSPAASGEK

Row | SMILES | activation
1 | Cc1cc(OCC(=O)NCc2ccncc2)c2c(C)c(C)c(=O)oc2c1 | inconclusive: 38.3%
2 | CCOC(=O)c1nnc(-c2ccccc2)nc1NCc1ccc(Cl)cc1 | inconclusive: 38.6%
3 | Cc1cc(C(=O)N2CCN(S(C)(=O)=O)CC2)cs1 | inactive: 4.73%
4 | COc1ccc(NC(=O)CN2CCCCC2)c([N+](=O)[O-])c1 | inconclusive: 54.7%
5 | CCO[C@H]1OC(C(=O)NCc2ccccc2)=C[C@@H](c2ccc(C(F)(F)F)cc2)[C@@H]1CCCO | inconclusive: 33.3%
6 | COc1ccc(-c2cc(=NC(CC(C)C)C(=O)O)c3cc(C)ccc3o2)cc1 (configuration not stated) | inconclusive: 36.5%
7 | CCC(C)c1ccc(NC(=S)NCc2ccccc2OC)cc1 (configuration not stated) | active: 83.2%
8 | COc1ccc(C(=O)NCCS(=O)(=O)N(C)Cc2ccccc2)cc1 | inconclusive: 40.1%
9 | CCOC(=O)c1[nH]c2ccccc2c1NC(=O)CC(C)(C)C | inconclusive: 47.4%
10 | CCOc1ncnc2c1[nH]c1ccccc12 | inconclusive: 35.7%
11 | Cc1cc(NC(=O)c2ccccc2)ncc1NC(=O)c1ccco1 | inactive: -1.74%
12 | Brc1ccccc1/C=N/Nc1ccc2ccccc2n1 | inactive: 7.68%
13 | CC(=O)NCCc1nc2ccccc2n1CCOc1ccccc1 | inconclusive: 47.9%
14 | O=C(CSc1nnc(Cc2cccs2)n1-c1ccccc1)Nc1ccc2c(c1)OCCO2 | inactive: 1.22%
15 | CC(C#Cc1c([C@@H](C)Oc2ccccc2)nnn1Cc1ccccc1)Oc1ccccc1 (some centres not stated) | inconclusive: 32.3%
16 | CCOC(=O)C1=C(c2ccccc2)N=C2SCC(=O)N2C1c1ccc(OCC)c(OCC)c1 (configuration not stated) | inconclusive: 38%
17 | COc1ccc(C(=S)NCS(=O)(=O)c2ccc(C)cc2)cc1 | inactive: 12.1%
18 | CCCN(CCC)S(=O)(=O)c1cccc(C(=O)N=c2sccn2C)c1 | inconclusive: 42.9%
19 | O=C(NC1CC1)c1ccc(N2CCCCC2)c([N+](=O)[O-])c1 | inconclusive: 61.9%
20 | O=C(Cc1ccccc1)Nc1cc(C(=O)c2ccccc2)ccc1N1CCOCC1 | inconclusive: 34%
21 | CC(C)c1ccc(NC2CCCN(C(=O)CCCn3cncn3)C2)cc1 (configuration not stated) | inconclusive: 54.4%
22 | Cc1cc([N+](=O)[O-])cc(C)c1OCC(=O)N/N=C/c1ccc(OC(=O)c2ccccc2Br)cc1 | inactive: 0.722%

Row | SMILES | activation
23 | Cc1noc(C)c1COc1ccccc1C(=O)NCc1ccccc1Cl | inconclusive: 58%
24 | COc1ccc(C(=O)N2CCN(c3nc(C4CC4)nc4sc(C)c(C)c34)CC2)cc1 | inconclusive: 33.7%
25 | COc1ccccc1-c1ccc(NC2CCCCC2)nn1 | inconclusive: 40.7%
26 | NNC(=O)C1CC1c1ccc(Cl)cc1 (configuration not stated) | inconclusive: 40.1%
27 | COc1cccc(N2CCc3c(C)nc4ccc(Cl)cc4c32)c1 | inactive: 5.96%
28 | CCOc1ccc(-c2c(=O)n(OCc3nc4ccccc4[nH]3)c3ccccc3[n+]2[O-])cc1 | inconclusive: 43.8%
29 | CCOC(=O)C1=C(Nc2ccccc2)CC(C)(O)C(C(=O)OCC)C1c1ccc(Br)cc1 (configuration not stated) | inconclusive: 31.5%
30 | CCOC(=O)C1(CCCc2ccccc2)CCN(C(=O)c2cc(C)nn2CC)CC1 | inconclusive: 36.5%
31 | COc1cccc(OCCn2cccc2/C=C2/C(=N)N3OC(C)=CC3=NC2=O)c1 | inconclusive: 36.7%
32 | O=C(Oc1ccc(O)cc1)C12CC3CC(CC(C3)C1)C2 | inconclusive: 40%
33 | O=C(NCc1nnnn1-c1ccc(F)c(F)c1)c1cc2ccccc2o1 | inconclusive: 46.8%
34 | COc1ccc(-c2ccoc2)cc1[C@H]1[C@H]2C=CC[C@@H](C)[C@@H]2C(=O)N1Cc1ccccc1 | inconclusive: 49%
35 | Cc1cccc(OCC(=O)N/N=C\c2cccn2C)c1C | inconclusive: 36.2%
36 | Cc1ccc(CNC(=O)Nc2cccs2)cc1 | inconclusive: 57.3%
37 | CC(=O)N1CCN(Cc2nc3cc(NC(=O)c4cccc(Br)c4)ccc3n2C)CC1 | inactive: -0.512%
38 | O=C1CCC/C1=c1\s/c(=C\c2cccnc2)c(=O)n1-c1ccccc1 | inconclusive: 33.4%
39 | Cc1ccc2c(c1)N(S(=O)(=O)c1cc(-c3onc(C)c3C)ccc1C)CCO2 | inconclusive: 62.4%
40 | O=C(CNc1cccc([N+](=O)[O-])c1)N/N=C/c1ccc([N+](=O)[O-])o1 | inactive: -2.23%
41 | C=CCNC1=C(Cl)C(=O)N(c2cccc(Cl)c2Cl)C1=O | inconclusive: 33.2%
42 | COc1cccc(-c2nc(CS(=O)(=O)CC(=O)NC3CCCCCC3)c(C)o2)c1 | inconclusive: 46.8%
43 | CC(C)c1ccc(N2C(=O)[C@@H]3Cc4ccccc4CN3C2=O)cc1 | inconclusive: 46%
44 | COc1cc(CC(=O)NCCc2ccc(OCc3ccccc3)cc2)c([N+](=O)[O-])cc1OC | inconclusive: 79%

Row | SMILES | activation
45 | C/C(=N\NC(=O)c1cccc(S(=O)(=O)N2CCCC2)c1)c1ccc(F)cc1 | inconclusive: 30.8%
46 | COc1ccc(OC)c(NC(=O)C2=C(C)NC(=O)NC2c2cccs2)c1 (configuration not stated) | inconclusive: 67.6%
47 | CC(OC(=O)Cc1ccccc1[N+](=O)[O-])C(=O)NC(=O)NC1CCCCC1 (configuration not stated) | inconclusive: 70.9%
48 | O=C(CN1CCN(C(c2ccccc2)c2ccccc2)CC1)NCc1ccccc1 | inconclusive: 34.4%
49 | Cc1ccc(NC(=O)c2ccc(S(=O)(=O)N3CCCC3)cc2)nc1 | active: 86.4%
50 | COc1ccc(OC(C)C(=O)Nc2cccc(OC)c2)cc1 (configuration not stated) | inactive: -22.4%
51 | CC(C)CCn1c(SC(C)C(=O)NC2CC2)nc2ccccc2c1=O (configuration not stated) | inconclusive: 65.2%
52 | O=C1CCCCC1C(Nc1ccc(Br)cc1)c1ccccc1 (configuration not stated) | inconclusive: 57.1%
53 | CCOC(=O)c1cc2c(=O)n3cccc(C)c3nc2n(Cc2ccco2)c1=NC(=O)c1cccnc1 | inactive: 10.4%
54 | CCOc1cccc(C(=O)NC(=S)Nc2ccc(N3CCCC3)cc2)c1 | inactive: 4.74%
55 | COc1cccc(C2=CC(=O)C[C@H](c3ccc(Cl)cc3)C2)c1OC | inactive: 5.29%
56 | CN1CCN(C(=O)C2=C[C@@H](c3ccc(C(F)(F)F)cc3)C[C@@H](OCc3ccc(CO)cc3)O2)CC1 | inconclusive: 59.6%
57 | O/N=C/c1ccc(-c2ccccc2OC(F)(F)F)o1 | inconclusive: 30.9%
58 | O=C(Nc1ccc2c(c1)OCCO2)c1ccc(Br)c(S(=O)(=O)N2CCOCC2)c1 | inconclusive: 58.1%
59 | CCN(CC)c1ncnc2c1ncn2Cc1c(Cl)cccc1Cl | inconclusive: 35.6%
60 | CCC1Oc2ccc(C)cc2N(Cc2cccc(C)c2)C1=O (configuration not stated) | inconclusive: 35.5%
61 | CC(=O)Nc1ccc(Nc2nc(C)c([N+](=O)[O-])c(Nc3ccc(NC(C)=O)cc3)n2)cc1 | inactive: 0.27%
62 | CC(C)c1c(C(=O)N/N=C/c2ccc3c(c2)OCO3)nnn1-c1nonc1N | inconclusive: 37.8%
63 | CC(C)(C)c1ccc(C(=O)Nc2ccccc2NC(=O)c2ccco2)cc1 | inconclusive: 43.1%
64 | COc1ccc(-c2cc(-c3c(O)c(OC)c4occc4c3OC)[nH]n2)cc1 | inactive: 0.127%
65 | COc1ccc(-c2nnc(SCC(=O)Nc3cc(F)ccc3C)o2)cc1 | inconclusive: 37.2%
66 | Cc1ccc(NC(=O)c2nc[nH]c2C(=O)N2CCN(C(=O)OC(C)(C)C)CC2)cc1 | inactive: 4.41%

Row | SMILES | activation
67 | COc1ccc(CCC(=O)OCC(=O)Nc2c(C)nn(-c3ccccc3)c2C)cc1 | inactive: 13.5%
68 | O=C(Nc1ccccc1)c1nsnc1C(=O)Nc1ccccc1 | inconclusive: 61.9%
69 | CC(=O)Nc1ccc(NC(=O)C(C)OC(=O)C2(c3ccc(Cl)cc3)CCCC2)cc1 (configuration not stated) | inconclusive: 37.2%
70 | COc1cccc(Nc2nc(C)nc3c2oc2ccccc23)c1 | active: 80.2%
71 | Cc1ccc(C(=O)Nc2ccc(Cl)cn2)cc1 | inconclusive: 67.7%
72 | COC(=O)C1=C(C)NC(=S)NC1c1ccc(OC(=O)c2ccco2)cc1 (configuration not stated) | inactive: 0.878%
73 | O=C(c1ccc2c(c1)OCO2)N(Cc1ccco1)C1(C(=O)NC2CCCCC2)CCCCC1 | inconclusive: 55.3%
74 | CC(NC(=O)COC(=O)/C=C/c1ccc(Cl)cc1)c1ccccc1 (configuration not stated) | inactive: 9.76%
75 | O=C(CCC1CCCC1)Nc1ccc(Br)cn1 | inconclusive: 58.1%
76 | C/C(=C1/SC(N2CCCC2)=NC1=O)c1ccc(Br)cc1 | inconclusive: 53.3%
77 | O=C(NNc1cc(Cl)ccc1Cl)c1cccs1 | inconclusive: 40.5%
78 | CCOC(=O)C1(Cc2cccc(Cl)c2)CCCN(C(=O)C2CC2)C1 (configuration not stated) | inconclusive: 42%
79 | O=C(C(Cc1ccccc1)n1cccc1)N1CCc2ccccc21 (configuration not stated) | inconclusive: 56.3%
80 | CCOc1nc(NCCN2CCOCC2)nc(Nc2ccc(C)cc2)n1 | inconclusive: 63.8%
81 | COCCn1c(SCC(=O)Nc2sc(C)c(C)c2C#N)nnc1C(C)C | inactive: 0.0345%
82 | O=[N+]([O-])c1cccc(/C=N/Nc2nc(N3CCCCC3)nc(N3CCCCC3)n2)c1 | inconclusive: 59%
83 | COc1ccc(C2CC(c3ccccc3)=NN2C(=O)CN2N=NC3C(=O)N(c4cccc(F)c4)C(=O)C32)cc1 (configuration not stated) | inconclusive: 31.1%
84 | Cc1ccc(C(=O)Nc2ccccc2C(=O)NC2CCCCC2)cc1S(=O)(=O)N1CCOCC1 | inconclusive: 34.2%
85 | Cc1cccc(/C=N/NC(=O)c2ccc(NC(=O)c3ccc(Cl)cc3)cc2)n1 | inconclusive: 75.3%
86 | O=C(CNC(=O)c1ccc(Br)o1)NCC(=O)OCc1ccccc1 | inactive: -2.69%
87 | CCOC(=O)c1c(C)[nH]c(C)c1S(=O)(=O)NCC1CCN(Cc2cccc(Cl)c2)CC1 | inactive: 1.57%

— PubChem BioAssay AID540275 (National Center for Advancing Translational Sciences (NCATS), 2011)
